# Measurements as given in patent US12377095B2, “Use of ligustrazine nitrone derivatives in treatment and prevention of diabetic complication diseases” (QINGDAO HAILAN PHARMACEUTICALS CO., LTD., priority 2019, dated 2025).
# At least one compound was matched to its structure with a doubt left.
# Test system: cisplatin-induced C57BL/6J mice
# Test: Hepcidin level in cisplatin-induced renal anemia C57BL/6J mice
# Type: in vivo, mouse
# Conditions: 10 mg/kg once every two days, 4 weeks
# Experimental: Modeling method: the animals were randomly divided into 5 groups, i.e., normal control group, model group, three treatment groups, wherein the normal control group was injected with equal volume of normal saline, the model group and three treatment groups were intraperitoneally injected with cisplatin (CDDP) 5 mg/kg once a week, for 4 weeks.
# The route of administration is intragastrical. TBN is administered twice a day (fixed at 9:00-10:00 am and 3:00-4:00 pm), and Roxadustat is administered once every two days (fixed at 9:00-10:00 am), for 4 weeks.
# Hepcidin is a cysteine-rich antibacterial polypeptide synthesized and secreted by the liver. It plays a negative regulatory role in the regulation of iron balance in the body and can be used to indirectly evaluate the symptoms of anemia in mice. […] Cisplatin and other chemotherapeutic drugs can cause iron regulation imbalance in mice, and TBN administration can reduce the expression level of iron regulation in the body, and thus can be used to treat cancer complicated renal anemia.
structure (smiles),measurement,value
"Cc1nc(C(=O)NCC(=O)O)c(O)c2ccc(Oc3ccccc3)cc12 [Roxadustat, reference compound]",level of iron regulation (hepcidin) vs model group,"reduced the level of iron regulation in renal anemia mice, but there was no significant statistical difference"
